No constants are given. Whether binding was seen depends on the method and setting. Some binding calls cover weakened binding; strength is not graded here.
Molecular target: human FXIa factor (human, UniProt P03951 19-625)
Assay: Biacore 8K (SPR)

Sequences of proteins named here, by UniProt entry; tags and fusion partners are left off. Residues count along the entry.
UniProt P03951, residues 19-625: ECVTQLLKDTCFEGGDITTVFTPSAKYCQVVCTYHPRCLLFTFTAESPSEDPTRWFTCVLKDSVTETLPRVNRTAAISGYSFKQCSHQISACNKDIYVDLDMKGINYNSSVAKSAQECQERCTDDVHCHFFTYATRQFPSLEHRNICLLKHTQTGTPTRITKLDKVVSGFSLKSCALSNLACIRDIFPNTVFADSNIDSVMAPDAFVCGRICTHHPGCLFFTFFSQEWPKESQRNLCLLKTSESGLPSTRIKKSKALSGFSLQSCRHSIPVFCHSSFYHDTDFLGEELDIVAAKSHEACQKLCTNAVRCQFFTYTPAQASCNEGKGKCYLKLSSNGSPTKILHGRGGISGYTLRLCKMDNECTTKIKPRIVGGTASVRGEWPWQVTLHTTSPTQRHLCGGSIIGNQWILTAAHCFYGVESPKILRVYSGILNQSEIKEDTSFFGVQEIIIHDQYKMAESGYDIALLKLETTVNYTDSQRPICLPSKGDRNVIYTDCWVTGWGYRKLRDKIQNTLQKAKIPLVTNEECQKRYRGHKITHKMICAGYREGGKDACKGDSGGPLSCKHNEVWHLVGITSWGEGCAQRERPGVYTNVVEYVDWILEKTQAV

B1: humanized antibody 29E10C4-1 (antibody, human IgG1, kappa, V domains shown)
VH: QVQLVQSGAEVKKPGSSVKVSCKASGGTFSDYFIEWVRQAPGQGLEWMGVINPGNDVTNYNEKFKGRVTITADKSTSTAYMELSSLRSEDTAVYYCARSAGNYENSMDFWGQGTTVTVSS
VL: EIVLTQSPATLSLSPGERATLSCKASQSVSNDVGWYQQKPGQAPRLLIYYTSNRYTGIPARFSGSGSGTDFTLTISSLEPEDFAVYYCQQDYHFPLTFGGGTKVEIKR
notes: 29E10C4-1 is the only humanized form of that clone
Which binding does the source give for B1 here?
The binding was “binds”.
